This is one part of the list.
Assays:
Assay in all cases: log2 fold change, soluble protein after heating vs DMSO (PISA); higher = thermal stabilisation; K562 cells, 10 uM, 30 min; active = over 0.2 and 3.5 SD of the protein, either way, in both replicates (recomputed)
[1] = compound: C1=CC=C(C=C1)[C@H](COC2=CC3=C(C=C2)NC(=O)N3)NC(=O)C4=CC=CN(C4=O)CC5=CC(=C(C=C5)F)F
Outline: (§1)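 Soluble protein was quantified by TMTpro 16plex LC-MS/MS after channel sums were equalised. It was obtained as the supernatant after 21,000xg for 90 min from pooled aliquots of K562 cells (2×10^6 cells/mL, 10 μM compound, 30 min) heated for 3 min across 48°C-58°C and extracted in PBS with 0.5% NP-40 at 4°C. Thermal stability values are relative to control samples and come from duplicates. They are given as log2 fold changes.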

The chains behind the UniProt entries cited, without tags or fusion partners. Where a name states a change or a piece, a line headed by the entry shows the natural chain unless it says otherwise.
UniProt Q96BQ5: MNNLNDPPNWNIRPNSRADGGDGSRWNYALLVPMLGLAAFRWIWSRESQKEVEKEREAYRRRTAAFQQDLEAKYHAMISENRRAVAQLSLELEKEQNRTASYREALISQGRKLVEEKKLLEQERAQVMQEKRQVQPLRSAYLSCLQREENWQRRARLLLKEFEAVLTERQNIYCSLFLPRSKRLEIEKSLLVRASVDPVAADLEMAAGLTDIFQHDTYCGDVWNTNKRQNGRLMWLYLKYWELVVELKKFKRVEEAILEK
UniProt Q9H6E4: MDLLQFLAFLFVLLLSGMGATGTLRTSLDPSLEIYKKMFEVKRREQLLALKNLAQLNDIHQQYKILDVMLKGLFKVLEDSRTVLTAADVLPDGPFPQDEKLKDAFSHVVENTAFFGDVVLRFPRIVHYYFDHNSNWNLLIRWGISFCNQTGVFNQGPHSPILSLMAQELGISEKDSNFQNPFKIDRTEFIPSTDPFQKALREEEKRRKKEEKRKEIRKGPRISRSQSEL
UniProt P30281: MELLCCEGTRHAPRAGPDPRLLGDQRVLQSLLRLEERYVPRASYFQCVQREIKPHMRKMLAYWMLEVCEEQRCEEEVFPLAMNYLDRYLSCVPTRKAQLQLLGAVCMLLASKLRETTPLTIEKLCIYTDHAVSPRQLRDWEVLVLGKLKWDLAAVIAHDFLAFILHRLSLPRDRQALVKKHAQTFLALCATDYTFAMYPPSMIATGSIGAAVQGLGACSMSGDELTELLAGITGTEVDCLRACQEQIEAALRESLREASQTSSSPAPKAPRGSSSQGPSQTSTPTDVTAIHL
UniProt O60563, whole entry, looked up: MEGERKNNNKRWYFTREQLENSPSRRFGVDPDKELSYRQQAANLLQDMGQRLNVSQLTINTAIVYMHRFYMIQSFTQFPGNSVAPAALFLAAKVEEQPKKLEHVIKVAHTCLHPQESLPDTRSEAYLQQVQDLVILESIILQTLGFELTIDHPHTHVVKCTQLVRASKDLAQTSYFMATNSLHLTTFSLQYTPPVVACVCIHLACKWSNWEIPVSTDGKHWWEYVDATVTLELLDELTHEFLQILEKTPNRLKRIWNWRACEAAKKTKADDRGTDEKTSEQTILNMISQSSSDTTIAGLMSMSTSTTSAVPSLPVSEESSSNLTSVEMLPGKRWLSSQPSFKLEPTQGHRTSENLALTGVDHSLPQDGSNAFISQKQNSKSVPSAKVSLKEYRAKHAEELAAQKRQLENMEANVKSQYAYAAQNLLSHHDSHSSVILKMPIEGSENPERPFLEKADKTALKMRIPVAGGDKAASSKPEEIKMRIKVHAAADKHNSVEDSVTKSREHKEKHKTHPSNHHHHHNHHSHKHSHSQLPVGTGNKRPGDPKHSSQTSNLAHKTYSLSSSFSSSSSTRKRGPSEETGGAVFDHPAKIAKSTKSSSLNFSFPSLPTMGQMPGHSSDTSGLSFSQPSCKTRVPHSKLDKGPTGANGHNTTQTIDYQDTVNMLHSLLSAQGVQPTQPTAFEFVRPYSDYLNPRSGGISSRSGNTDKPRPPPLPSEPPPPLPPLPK
UniProt Q96A33: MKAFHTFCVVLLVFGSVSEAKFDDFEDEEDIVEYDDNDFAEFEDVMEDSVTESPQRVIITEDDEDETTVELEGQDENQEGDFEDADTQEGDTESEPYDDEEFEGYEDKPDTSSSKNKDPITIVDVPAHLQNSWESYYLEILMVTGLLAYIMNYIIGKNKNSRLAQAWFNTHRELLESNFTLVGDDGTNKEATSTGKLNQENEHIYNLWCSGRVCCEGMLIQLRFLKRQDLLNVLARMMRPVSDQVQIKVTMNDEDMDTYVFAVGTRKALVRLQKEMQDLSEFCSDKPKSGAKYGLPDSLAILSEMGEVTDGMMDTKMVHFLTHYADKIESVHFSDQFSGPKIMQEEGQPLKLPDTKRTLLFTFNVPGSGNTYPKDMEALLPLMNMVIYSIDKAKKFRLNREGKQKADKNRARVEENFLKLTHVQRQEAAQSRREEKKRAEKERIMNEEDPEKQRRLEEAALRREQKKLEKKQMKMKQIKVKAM
UniProt P19256, whole entry, looked up: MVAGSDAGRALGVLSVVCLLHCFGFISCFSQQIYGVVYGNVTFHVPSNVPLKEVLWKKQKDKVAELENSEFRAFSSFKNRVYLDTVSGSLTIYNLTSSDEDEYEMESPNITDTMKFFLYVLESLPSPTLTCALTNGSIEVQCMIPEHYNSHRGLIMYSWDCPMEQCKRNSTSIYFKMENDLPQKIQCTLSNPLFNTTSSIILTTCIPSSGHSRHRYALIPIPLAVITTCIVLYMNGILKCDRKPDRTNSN
UniProt Q7L3B6: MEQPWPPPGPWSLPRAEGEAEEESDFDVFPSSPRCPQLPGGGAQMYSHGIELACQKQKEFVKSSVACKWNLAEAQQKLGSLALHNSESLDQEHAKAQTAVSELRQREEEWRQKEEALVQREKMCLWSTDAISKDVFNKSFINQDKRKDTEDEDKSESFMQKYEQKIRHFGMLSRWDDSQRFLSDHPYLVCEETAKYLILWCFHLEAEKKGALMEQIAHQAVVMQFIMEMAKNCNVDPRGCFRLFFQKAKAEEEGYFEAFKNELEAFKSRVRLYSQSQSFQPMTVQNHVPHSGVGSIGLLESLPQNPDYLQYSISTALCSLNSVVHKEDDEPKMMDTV
UniProt P51946: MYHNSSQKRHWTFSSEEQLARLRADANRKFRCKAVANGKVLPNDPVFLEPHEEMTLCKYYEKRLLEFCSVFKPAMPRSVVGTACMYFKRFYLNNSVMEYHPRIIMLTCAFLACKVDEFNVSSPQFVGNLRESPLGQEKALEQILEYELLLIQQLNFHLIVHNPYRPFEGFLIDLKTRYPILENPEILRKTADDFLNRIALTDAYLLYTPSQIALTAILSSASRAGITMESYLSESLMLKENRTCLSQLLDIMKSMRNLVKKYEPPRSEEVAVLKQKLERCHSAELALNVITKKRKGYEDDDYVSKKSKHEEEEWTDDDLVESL
UniProt Q9P031: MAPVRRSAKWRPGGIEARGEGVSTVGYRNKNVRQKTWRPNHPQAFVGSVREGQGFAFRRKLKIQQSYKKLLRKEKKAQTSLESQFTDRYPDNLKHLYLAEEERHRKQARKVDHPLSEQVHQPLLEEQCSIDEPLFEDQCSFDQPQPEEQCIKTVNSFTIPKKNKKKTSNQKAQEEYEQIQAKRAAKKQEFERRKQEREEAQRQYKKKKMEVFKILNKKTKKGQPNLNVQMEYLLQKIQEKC
UniProt Q08722, whole entry, looked up: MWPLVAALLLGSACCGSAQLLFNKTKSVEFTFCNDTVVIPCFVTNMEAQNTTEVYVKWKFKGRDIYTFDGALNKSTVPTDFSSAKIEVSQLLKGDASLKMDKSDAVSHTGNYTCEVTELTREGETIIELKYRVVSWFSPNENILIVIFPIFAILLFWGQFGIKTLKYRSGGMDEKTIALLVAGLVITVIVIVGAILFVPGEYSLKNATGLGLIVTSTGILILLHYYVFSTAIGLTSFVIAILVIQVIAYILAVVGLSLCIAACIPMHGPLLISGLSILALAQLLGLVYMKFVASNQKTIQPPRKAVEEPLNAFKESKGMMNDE
UniProt Q96MW1: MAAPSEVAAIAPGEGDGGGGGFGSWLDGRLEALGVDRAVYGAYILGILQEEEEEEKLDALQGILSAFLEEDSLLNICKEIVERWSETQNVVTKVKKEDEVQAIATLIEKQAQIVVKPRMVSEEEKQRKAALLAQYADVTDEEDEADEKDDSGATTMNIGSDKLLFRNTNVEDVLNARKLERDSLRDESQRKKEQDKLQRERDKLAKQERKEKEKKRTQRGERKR
UniProt Q96NT0: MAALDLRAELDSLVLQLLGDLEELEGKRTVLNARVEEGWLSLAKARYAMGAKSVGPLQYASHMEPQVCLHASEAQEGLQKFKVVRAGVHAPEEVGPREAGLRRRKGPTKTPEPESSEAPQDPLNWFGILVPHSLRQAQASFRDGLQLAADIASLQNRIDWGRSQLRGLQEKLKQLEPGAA
UniProt Q8N4T8: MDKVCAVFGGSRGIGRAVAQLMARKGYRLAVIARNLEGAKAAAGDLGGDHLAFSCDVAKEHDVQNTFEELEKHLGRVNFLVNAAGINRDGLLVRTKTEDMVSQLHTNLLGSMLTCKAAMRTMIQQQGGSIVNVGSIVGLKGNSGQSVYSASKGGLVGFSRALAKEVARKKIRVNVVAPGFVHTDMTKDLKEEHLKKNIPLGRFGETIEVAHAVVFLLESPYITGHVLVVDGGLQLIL
UniProt P35520: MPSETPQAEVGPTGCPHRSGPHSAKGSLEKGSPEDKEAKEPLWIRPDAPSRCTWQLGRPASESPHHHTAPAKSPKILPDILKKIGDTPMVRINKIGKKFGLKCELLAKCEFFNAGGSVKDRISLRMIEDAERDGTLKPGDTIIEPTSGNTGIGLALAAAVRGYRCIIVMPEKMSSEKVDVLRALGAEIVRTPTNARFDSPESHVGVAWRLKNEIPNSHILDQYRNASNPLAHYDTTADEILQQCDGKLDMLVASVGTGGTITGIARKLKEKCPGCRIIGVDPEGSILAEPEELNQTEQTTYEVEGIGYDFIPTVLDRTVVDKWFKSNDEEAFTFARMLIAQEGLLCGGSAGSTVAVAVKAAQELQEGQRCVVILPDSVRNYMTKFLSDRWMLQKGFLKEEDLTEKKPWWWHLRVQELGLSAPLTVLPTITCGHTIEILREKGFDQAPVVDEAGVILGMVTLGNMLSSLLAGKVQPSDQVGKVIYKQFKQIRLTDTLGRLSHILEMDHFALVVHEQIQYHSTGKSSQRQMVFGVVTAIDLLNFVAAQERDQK
UniProt Q96F63: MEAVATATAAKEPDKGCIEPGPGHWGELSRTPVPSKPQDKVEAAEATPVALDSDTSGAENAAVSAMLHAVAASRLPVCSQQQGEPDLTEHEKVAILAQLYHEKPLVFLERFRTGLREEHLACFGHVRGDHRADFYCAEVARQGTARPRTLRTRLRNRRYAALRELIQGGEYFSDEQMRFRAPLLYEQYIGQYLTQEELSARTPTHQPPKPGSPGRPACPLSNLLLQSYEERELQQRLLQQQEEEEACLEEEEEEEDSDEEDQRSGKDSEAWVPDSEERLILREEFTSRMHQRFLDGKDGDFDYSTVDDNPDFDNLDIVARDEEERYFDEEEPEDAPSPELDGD
UniProt Q9Y5K6, whole entry, looked up: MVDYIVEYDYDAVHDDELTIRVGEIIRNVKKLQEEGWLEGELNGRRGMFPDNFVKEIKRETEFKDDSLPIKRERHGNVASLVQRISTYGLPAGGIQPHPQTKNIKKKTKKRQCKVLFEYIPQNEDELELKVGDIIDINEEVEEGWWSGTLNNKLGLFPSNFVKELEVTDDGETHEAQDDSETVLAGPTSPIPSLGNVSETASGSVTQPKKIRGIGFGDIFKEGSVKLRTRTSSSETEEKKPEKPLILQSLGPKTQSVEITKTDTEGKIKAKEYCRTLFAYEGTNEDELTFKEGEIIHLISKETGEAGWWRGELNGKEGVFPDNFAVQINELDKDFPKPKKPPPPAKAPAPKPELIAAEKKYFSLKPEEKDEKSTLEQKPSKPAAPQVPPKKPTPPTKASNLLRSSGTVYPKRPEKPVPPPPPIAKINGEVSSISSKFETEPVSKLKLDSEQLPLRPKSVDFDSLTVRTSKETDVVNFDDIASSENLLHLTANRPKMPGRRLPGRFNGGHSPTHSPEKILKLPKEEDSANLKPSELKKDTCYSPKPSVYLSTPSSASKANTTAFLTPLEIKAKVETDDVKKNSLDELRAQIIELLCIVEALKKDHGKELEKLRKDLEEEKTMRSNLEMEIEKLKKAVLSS
UniProt Q9BSQ5: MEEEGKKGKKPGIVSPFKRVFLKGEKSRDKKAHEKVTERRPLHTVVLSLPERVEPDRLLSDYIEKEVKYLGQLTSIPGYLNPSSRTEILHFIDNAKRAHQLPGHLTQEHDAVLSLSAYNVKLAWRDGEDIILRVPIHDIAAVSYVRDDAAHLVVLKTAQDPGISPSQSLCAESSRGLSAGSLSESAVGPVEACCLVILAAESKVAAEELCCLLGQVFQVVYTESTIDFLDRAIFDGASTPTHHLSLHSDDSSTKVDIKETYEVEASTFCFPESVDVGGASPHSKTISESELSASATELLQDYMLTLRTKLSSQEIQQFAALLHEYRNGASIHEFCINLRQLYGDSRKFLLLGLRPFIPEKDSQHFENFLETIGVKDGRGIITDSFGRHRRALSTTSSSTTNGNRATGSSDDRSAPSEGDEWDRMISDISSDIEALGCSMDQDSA
UniProt Q13951, whole entry, looked up: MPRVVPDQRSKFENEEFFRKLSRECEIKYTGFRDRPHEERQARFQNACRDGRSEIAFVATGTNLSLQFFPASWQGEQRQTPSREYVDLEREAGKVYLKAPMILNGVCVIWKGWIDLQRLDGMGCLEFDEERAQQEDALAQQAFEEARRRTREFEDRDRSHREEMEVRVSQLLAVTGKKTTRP
UniProt P49427: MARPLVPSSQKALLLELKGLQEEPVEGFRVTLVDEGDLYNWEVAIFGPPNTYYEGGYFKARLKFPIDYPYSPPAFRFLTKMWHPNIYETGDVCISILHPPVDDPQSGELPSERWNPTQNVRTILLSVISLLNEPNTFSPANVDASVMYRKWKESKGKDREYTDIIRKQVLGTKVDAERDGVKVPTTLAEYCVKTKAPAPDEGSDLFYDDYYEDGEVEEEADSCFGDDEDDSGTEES

[2] = compound: CC1=C(SC2=C1C(=N[C@H](C3=NN=C(N32)C)CC(=O)N)C4=CC=C(C=C4)Cl)C
Outline: as §1

[3] = compound: CC1=C2C(=CC=C1)N=C(N(C2=O)C3=CC=CC=C3C)CN4C=NC5=C(N=CN=C54)N
Outline: as §1

[4] = compound: Cc1sc2c(c1C)C(c1ccc(Cl)cc1)=N[C@@H](CC(=O)OC(C)(C)C)c1nnc(C)n1-2
Outline: as §1

[5] = compound: c1ccc([C@@H]2C[C@H]2NC2CCNCC2)cc1
Outline: as §1

Measured: log2 fold change

CCT3 (UniProt P49368)
inactive: [1] 0.009 | [2] 0.018 | [3] -0.02 | [4] 0 | [5] -0.013

CCDC124 (UniProt Q96CT7)
inactive: [1] 0.021 | [2] -0.047 | [3] -0.021 | [4] 0.035 | [5] -0.001

CDC37 (UniProt Q16543)
inactive: [1] -0.029 | [2] 0.015 | [3] 0.035 | [4] 0 | [5] -0.027

CCDC127 (UniProt Q96BQ5)
inactive: [1] 0.026 | [2] -0.012 | [3] -0.141 | [4] -0.056 | [5] -0.009

CCDC134 (UniProt Q9H6E4)
inactive: [1] 0.034 | [2] -0.014 | [3] -0.01 | [4] 0.014 | [5] 0.002

CCND3 (UniProt P30281)
inactive: [1] -0.105 | [2] -0.015 | [3] 0.121 | [4] 0.033 | [5] 0.053

CCDC6 (UniProt Q16204)
inactive: [1] -0.006 | [2] 0.039 | [3] 0.043 | [4] -0.011 | [5] -0.001

CCDC85C (UniProt A6NKD9)
inactive: [1] -0.042 | [2] 0.078 | [3] 0.026 | [4] 0.034 | [5] -0.09

CCNA2 (UniProt P20248)
inactive: [1] 0.005 | [2] -0.016 | [3] -0.028 | [4] 0.007 | [5] 0.058

CDC20 (UniProt Q12834)
inactive: [1] -0.01 | [2] -0.084 | [3] 0.153 | [4] 0.075 | [5] 0.071

CCNT1 (UniProt O60563)
inactive: [1] 0.108 | [2] -0.022 | [3] -0.036 | [4] 0.085 | [5] 0.072

CCDC47 (UniProt Q96A33)
inactive: [1] -0.027 | [2] 0.075 | [3] 0.085 | [4] -0.013 | [5] -0.005

CD59 isoform 2 (UniProt P13987)
inactive: [1] 0.031 | [2] -0.017 | [3] 0.016 | [4] -0.035 | [5] 0.028

CD58 (UniProt P19256)
inactive: [1] 0.006 | [2] 0.017 | [3] 0.059 | [4] -0.026 | [5] -0.033

CCT6A (UniProt P40227)
inactive: [1] 0.007 | [2] -0.013 | [3] -0.011 | [4] -0.031 | [5] 0.002

CDC37L1 (UniProt Q7L3B6)
inactive: [1] -0.009 | [2] 0.026 | [3] 0.087 | [4] 0.337 | [5] 0.02

2 records drawn at random from the list so far, as already listed:
CCDC6 (UniProt Q16204)
inactive: [1] -0.006 | [2] 0.039 | [3] 0.043 | [4] -0.011 | [5] -0.001

CCDC127 (UniProt Q96BQ5)
inactive: [1] 0.026 | [2] -0.012 | [3] -0.141 | [4] -0.056 | [5] -0.009

Following part

CCNB1 (UniProt P14635)
inactive: [1] -0.004 | [2] 0.036 | [3] 0.015 | [4] -0.007 | [5] 0.026

CBWD1 (UniProt Q9BRT8)
inactive: [1] 0.017 | [2] 0.02 | [3] 0.081 | [4] -0.185 | [5] -0.065

CCDC28A (UniProt Q8IWP9)
inactive: [1] 0 | [2] 0.163 | [3] -0.053 | [4] -0.069 | [5] 0.139

CBARP (UniProt Q8N350)
inactive: [1] -0.005 | [2] -0.169 | [3] -0.095 | [4] 0.033 | [5] 0.034

CCT8 (UniProt P50990)
inactive: [1] -0.006 | [2] 0.01 | [3] -0.013 | [4] -0.023 | [5] 0.002

CCDC25 (UniProt Q86WR0)
inactive: [1] -0.094 | [2] 0.032 | [3] 0.098 | [4] 0.01 | [5] -0.012

CCDC50 (UniProt Q8IVM0)
inactive: [1] 0.012 | [2] 0.007 | [3] 0.019 | [4] 0.005 | [5] 0.012

CAT (UniProt P04040)
inactive: [1] 0.021 | [2] -0.002 | [3] 0.011 | [4] -0.021 | [5] 0.019

CAST isoform 6 (UniProt P20810)
inactive: [1] 0.023 | [2] 0.011 | [3] 0.073 | [4] 0.026 | [5] 0.065

CD99 (UniProt P14209)
inactive: [1] 0.019 | [2] -0.102 | [3] 0.028 | [4] -0.115 | [5] 0.004

CCNH (UniProt P51946)
inactive: [1] 0.02 | [2] -0.035 | [3] 0.032 | [4] 0.002 | [5] 0.033

CCZ1 (UniProt P86791)
inactive: [1] 0.011 | [2] 0.009 | [3] 0.02 | [4] 0.017 | [5] -0.024

CCNDBP1 (UniProt O95273)
inactive: [1] 0.023 | [2] -0.118 | [3] 0.182 | [4] 0.007 | [5] 0.047

CCDC59 (UniProt Q9P031)
inactive: [1] 0.012 | [2] -0.177 | [3] -0.214 | [4] 0.165 | [5] 0.052

CD47 (UniProt Q08722)
inactive: [1] 0.012 | [2] 0.005 | [3] -0.011 | [4] 0.006 | [5] 0.026

CASC4 (UniProt Q6P4E1)
inactive: [1] -0.009 | [2] 0.035 | [3] 0.044 | [4] 0.019 | [5] -0.02

CC2D1A (UniProt Q6P1N0)
inactive: [1] -0.047 | [2] 0.002 | [3] 0.12 | [4] 0.007 | [5] -0.051

CCDC43 (UniProt Q96MW1)
inactive: [1] -0.006 | [2] 0.019 | [3] 0.018 | [4] -0.012 | [5] 0

CCDC58 (UniProt Q4VC31)
inactive: [1] 0.027 | [2] -0.031 | [3] -0.011 | [4] -0.025 | [5] 0.045

CCDC115 (UniProt Q96NT0)
inactive: [1] 0.003 | [2] 0.008 | [3] -0.013 | [4] 0.012 | [5] 0.032

CARS2 (UniProt Q9HA77)
inactive: [1] -0.015 | [2] 0.004 | [3] 0.056 | [4] -0.016 | [5] -0.008

CDC40 (UniProt O60508)
inactive: [1] 0.248 | [2] -0.121 | [3] -0.076 | [4] -0.15 | [5] 0.081

CBR4 (UniProt Q8N4T8)
inactive: [1] 0.014 | [2] 0.086 | [3] 0.06 | [4] 0.004 | [5] 0.042

CCAR1 (UniProt Q8IX12)
inactive: [1] -0.129 | [2] 0.061 | [3] 0.043 | [4] 0.044 | [5] -0.043

CBS (UniProt P35520)
inactive: [1] -0.029 | [2] 0.07 | [3] 0.016 | [4] -0.014 | [5] -0.026

CBX3 (UniProt Q13185)
inactive: [1] -0.008 | [2] 0.033 | [3] 0.035 | [4] -0.002 | [5] 0.019

CCT4 (UniProt P50991)
inactive: [1] -0.036 | [2] -0.006 | [3] -0.013 | [4] -0.012 | [5] 0.007

CCDC97 (UniProt Q96F63)
inactive: [1] 0.045 | [2] 0.038 | [3] 0.166 | [4] 0.071 | [5] 0.022

CD2AP (UniProt Q9Y5K6)
inactive: [1] -0.001 | [2] 0.014 | [3] 0.044 | [4] 0.01 | [5] 0.014

CCM2 isoform 2 (UniProt Q9BSQ5)
inactive: [1] 0.013 | [2] 0.144 | [3] 0.046 | [4] -0.161 | [5] -0.046

CBFB (UniProt Q13951)
inactive: [1] -0.044 | [2] 0.094 | [3] 0.108 | [4] -0.039 | [5] 0.001

CDC23 (UniProt Q9UJX2)
inactive: [1] 0.417 | [2] -0.027 | [3] 0.016 | [4] 0.014 | [5] -0.023

CDC34 (UniProt P49427)
inactive: [1] -0.087 | [2] 0.023 | [3] 0.079 | [4] 0.065 | [5] 0.032

CBL (UniProt P22681)
inactive: [1] -0.016 | [2] 0.063 | [3] 0.065 | [4] -0.074 | [5] 0

CD97 (UniProt P48960)
inactive: [1] 0.013 | [2] -0.043 | [3] -0.047 | [4] -0.052 | [5] 0.2

CCNB2 (UniProt O95067)
inactive: [1] -0.005 | [2] 0.098 | [3] 0.033 | [4] 0.014 | [5] -0.056

2 neighbouring records already listed:
CBL (UniProt P22681)
inactive: [1] -0.016 | [2] 0.063 | [3] 0.065 | [4] -0.074 | [5] 0

CD97 (UniProt P48960)
inactive: [1] 0.013 | [2] -0.043 | [3] -0.047 | [4] -0.052 | [5] 0.2

Later entries:

CASP2 (UniProt P42575)
inactive: [1] -0.039 | [2] 0.016 | [3] 0.027 | [4] -0.01 | [5] -0.039

From the supplement of paper PMC10849652
